No constants are given. Whether binding was seen depends on the method and setting. In cells and extracts the contact can be indirect. A yes stands for co-enrichment or nearness to the bait. Other partners may have been found.
Experiments:
[1] = target: PAX5 (human (endogenous in KIS-1, REH, GM12878, NALM6 and RAJI)) (UniProt Q02548); test: affinity purification with mass spectrometry; anti-PAX5 (sc-1974) co-IP from KIS-1 + EBF1 nuclear extracts (lysed with Benzonase), cells with or without DOX induction of EBF1 for 48 h; normal goat IgG control; gel bands, trypsin, nanoLC-MS/MS; two replicates
[2] = target: PAX5 (human (endogenous in KIS-1, REH, GM12878, NALM6 and RAJI)) (UniProt Q02548); test: affinity purification with mass spectrometry; PAX5 co-IP from RAJI cells, mass spectrometry; two replicates
[3] = target: PAX5 (human (endogenous in KIS-1, REH, GM12878, NALM6 and RAJI)) (UniProt Q02548); test: affinity purification with mass spectrometry; PAX5 co-IP from NALM6 cells, mass spectrometry; two replicates

Sequences of proteins named here, by UniProt entry; tags and fusion partners are left off.
UniProt Q02548: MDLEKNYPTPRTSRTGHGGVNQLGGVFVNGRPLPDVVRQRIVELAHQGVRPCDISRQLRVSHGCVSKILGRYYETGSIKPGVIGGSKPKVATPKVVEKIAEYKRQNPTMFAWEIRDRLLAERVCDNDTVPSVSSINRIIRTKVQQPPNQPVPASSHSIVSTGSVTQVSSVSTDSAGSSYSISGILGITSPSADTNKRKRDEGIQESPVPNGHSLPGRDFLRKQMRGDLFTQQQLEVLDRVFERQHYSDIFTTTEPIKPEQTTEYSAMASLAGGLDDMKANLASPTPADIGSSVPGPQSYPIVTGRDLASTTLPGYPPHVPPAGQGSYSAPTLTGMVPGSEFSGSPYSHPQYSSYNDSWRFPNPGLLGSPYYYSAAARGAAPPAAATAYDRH
UniProt Q9UBL3: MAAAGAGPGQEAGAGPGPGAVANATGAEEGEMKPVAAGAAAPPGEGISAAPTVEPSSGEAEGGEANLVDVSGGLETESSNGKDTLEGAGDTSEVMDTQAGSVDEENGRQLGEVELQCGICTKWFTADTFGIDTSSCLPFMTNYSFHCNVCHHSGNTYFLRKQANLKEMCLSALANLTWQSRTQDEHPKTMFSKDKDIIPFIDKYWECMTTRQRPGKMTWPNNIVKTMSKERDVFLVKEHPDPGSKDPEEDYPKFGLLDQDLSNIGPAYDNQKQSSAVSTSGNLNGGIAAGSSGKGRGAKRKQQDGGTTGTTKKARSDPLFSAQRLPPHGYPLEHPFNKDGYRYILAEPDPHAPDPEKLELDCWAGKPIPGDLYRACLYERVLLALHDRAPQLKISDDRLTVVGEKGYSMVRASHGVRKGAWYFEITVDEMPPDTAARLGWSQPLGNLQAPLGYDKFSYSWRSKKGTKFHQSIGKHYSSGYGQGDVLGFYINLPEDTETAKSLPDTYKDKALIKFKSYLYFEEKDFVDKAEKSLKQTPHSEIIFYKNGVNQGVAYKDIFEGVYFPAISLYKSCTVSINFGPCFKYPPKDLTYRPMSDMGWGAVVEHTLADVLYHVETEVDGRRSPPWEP
UniProt Q9C005: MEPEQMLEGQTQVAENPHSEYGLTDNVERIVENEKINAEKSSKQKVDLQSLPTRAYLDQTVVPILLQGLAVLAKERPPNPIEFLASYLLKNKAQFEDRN
UniProt Q03164: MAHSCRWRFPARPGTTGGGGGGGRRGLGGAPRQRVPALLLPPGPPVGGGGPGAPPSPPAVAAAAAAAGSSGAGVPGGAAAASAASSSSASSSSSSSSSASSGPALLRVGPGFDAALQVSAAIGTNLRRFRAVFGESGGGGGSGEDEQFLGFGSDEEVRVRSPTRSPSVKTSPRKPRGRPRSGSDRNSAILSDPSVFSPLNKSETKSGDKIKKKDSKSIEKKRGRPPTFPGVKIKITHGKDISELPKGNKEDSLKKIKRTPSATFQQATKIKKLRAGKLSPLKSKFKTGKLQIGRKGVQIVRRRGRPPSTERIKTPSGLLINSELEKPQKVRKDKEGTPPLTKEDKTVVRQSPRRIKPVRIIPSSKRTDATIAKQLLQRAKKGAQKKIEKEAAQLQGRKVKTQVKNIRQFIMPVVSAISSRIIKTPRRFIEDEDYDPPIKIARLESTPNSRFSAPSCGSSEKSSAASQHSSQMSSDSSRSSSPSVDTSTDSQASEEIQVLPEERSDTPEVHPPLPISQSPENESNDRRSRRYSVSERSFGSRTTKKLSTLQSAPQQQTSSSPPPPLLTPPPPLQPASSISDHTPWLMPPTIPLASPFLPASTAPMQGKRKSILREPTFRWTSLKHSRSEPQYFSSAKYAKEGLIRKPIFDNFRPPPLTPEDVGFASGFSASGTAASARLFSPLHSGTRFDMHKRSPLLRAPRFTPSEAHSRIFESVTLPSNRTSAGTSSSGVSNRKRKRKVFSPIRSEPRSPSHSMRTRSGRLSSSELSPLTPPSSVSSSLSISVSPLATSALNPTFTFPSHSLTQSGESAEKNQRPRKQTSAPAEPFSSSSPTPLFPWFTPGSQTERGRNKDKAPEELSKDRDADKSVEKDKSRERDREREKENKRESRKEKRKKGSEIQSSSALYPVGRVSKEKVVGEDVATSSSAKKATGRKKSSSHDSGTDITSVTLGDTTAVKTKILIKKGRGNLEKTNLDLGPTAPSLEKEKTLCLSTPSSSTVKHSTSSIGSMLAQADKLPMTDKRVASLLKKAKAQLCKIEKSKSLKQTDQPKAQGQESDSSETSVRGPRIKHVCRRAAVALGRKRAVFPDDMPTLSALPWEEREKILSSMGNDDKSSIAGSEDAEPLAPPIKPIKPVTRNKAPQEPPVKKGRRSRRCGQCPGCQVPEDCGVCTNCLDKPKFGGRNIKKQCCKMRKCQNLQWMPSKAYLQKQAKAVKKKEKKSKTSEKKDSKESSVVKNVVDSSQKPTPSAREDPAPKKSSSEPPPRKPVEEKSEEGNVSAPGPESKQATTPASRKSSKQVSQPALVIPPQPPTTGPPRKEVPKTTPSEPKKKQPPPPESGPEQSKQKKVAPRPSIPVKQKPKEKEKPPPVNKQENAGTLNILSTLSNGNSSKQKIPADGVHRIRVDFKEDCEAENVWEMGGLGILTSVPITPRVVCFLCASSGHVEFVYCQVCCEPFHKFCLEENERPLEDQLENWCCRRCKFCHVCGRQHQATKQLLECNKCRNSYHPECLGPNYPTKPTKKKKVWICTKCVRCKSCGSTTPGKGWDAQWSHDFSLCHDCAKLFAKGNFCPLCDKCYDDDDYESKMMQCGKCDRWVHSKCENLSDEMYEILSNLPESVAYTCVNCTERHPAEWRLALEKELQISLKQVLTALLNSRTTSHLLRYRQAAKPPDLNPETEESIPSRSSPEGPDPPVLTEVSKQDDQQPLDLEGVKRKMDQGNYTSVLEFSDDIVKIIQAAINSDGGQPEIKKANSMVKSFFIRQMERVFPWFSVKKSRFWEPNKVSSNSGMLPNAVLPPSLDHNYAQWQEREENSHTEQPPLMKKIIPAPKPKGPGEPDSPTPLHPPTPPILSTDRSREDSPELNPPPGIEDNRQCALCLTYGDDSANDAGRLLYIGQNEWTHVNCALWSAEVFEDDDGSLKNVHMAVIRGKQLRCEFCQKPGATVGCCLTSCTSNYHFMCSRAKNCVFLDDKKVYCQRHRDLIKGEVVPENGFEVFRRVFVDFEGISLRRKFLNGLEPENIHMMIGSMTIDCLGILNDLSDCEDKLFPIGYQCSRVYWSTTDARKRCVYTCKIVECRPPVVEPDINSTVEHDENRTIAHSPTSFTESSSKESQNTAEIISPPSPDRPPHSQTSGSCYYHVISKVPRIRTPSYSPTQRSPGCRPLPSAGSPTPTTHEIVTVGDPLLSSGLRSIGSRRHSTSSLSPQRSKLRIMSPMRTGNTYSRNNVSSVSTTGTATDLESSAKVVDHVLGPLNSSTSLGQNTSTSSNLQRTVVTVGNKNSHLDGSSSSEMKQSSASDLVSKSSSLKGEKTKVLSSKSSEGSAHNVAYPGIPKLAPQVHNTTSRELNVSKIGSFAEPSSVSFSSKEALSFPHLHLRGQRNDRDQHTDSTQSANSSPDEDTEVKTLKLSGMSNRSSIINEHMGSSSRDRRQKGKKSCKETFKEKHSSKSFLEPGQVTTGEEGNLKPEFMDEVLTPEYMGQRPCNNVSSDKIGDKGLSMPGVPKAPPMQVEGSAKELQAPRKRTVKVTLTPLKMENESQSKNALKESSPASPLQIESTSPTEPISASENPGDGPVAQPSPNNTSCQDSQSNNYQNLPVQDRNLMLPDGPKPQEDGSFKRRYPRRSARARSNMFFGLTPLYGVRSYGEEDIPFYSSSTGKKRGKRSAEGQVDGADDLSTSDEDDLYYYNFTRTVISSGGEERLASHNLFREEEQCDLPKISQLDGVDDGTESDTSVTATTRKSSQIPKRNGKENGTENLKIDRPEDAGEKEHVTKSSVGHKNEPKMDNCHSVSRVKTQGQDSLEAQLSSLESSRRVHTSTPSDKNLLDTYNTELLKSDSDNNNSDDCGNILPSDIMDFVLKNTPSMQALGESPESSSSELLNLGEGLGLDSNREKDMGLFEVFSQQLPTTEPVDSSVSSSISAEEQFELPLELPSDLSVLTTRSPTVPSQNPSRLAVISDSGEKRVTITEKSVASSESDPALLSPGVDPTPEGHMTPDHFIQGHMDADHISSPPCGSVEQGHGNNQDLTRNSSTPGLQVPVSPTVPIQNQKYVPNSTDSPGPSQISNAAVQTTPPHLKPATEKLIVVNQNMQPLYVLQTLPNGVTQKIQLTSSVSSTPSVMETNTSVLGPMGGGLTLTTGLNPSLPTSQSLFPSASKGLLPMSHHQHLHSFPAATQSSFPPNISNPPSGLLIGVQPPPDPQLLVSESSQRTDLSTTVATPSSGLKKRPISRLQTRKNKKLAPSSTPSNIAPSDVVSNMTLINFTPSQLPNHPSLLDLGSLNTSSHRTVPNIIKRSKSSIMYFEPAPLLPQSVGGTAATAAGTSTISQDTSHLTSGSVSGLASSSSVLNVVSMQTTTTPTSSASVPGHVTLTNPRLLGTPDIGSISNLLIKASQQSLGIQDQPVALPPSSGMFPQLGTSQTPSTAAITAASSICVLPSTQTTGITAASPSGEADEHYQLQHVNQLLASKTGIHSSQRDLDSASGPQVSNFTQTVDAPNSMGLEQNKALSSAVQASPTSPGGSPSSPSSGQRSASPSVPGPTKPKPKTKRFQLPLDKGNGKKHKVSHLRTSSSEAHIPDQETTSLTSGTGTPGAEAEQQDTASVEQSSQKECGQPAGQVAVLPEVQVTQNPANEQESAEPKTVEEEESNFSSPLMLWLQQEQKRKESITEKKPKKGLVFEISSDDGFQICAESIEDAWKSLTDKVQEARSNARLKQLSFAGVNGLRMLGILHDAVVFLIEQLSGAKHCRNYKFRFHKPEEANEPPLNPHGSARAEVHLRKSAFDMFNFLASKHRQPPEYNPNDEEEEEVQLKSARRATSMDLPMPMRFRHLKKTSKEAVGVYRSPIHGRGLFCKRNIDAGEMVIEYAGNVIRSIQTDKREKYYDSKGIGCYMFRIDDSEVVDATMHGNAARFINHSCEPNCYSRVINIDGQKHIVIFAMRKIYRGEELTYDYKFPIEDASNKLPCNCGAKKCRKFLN
UniProt O00255: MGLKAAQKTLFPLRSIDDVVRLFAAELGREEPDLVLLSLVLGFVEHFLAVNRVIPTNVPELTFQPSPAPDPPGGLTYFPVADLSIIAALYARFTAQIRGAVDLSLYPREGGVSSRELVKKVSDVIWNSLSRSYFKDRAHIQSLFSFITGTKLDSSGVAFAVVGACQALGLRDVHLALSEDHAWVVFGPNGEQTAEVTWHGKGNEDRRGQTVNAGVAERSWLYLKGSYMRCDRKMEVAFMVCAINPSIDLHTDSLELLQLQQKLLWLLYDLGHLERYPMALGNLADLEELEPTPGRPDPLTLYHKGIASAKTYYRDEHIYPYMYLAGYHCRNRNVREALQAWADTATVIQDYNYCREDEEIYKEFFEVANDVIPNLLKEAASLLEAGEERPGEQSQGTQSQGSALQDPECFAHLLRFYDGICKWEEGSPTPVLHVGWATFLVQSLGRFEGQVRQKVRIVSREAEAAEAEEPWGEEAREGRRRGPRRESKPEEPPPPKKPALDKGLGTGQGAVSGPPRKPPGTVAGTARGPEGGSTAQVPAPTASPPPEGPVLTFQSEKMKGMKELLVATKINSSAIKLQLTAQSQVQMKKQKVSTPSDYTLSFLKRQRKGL
UniProt Q15291: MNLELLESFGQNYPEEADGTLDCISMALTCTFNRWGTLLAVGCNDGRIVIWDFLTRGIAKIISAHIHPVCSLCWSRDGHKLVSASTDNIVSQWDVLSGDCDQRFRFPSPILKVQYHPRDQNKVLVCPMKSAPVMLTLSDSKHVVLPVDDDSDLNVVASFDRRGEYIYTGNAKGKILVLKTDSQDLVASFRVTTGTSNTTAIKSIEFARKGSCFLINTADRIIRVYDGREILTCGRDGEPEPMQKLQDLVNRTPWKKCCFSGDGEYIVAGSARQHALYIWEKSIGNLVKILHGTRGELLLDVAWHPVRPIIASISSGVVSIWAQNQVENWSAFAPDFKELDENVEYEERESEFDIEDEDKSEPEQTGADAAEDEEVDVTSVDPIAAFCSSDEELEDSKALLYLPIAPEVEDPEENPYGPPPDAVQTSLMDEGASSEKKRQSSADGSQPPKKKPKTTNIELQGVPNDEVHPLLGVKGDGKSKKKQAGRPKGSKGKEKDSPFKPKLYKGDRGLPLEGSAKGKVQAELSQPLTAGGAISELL

| Substance | binding [1] | binding [2] | binding [3] |
| --- | --- | --- | --- |
| ASH2L (from UniProt Q9UBL3 1-628) | binds | binds | – |
| DPY30 (from UniProt Q9C005 1-99) | binds | – | – |
| KMT2A, the catalytic component of MLL (from UniProt Q03164 1-3969) | binds | binds | binds |
| MEN1 (from UniProt O00255 1-610) | binds | binds | – |
| RBBP5 (from UniProt Q15291 1-538) | binds | binds | binds |
| TAF6 (from UniProt P49848 1-677) | binds | – | – |

From article PMC7810865
